Measurements published in PubChem BioAssay AID504834 (National Center for Advancing Translational Sciences (NCATS), 2011).
Hit rate of the full screen: of about 320,000 compounds, about 22,000 (6.9%) were called active. Inconclusive means that the source gave no clear call. Such entries were picked first, then a sample of the others. The call rests on the fitted dose curve; in most records, active means well fitted inhibition curve with a large enough effect; inconclusive means small, poorly fitted or top-dose-only effect, or another doubt; inactive means no such curve, though single readings can be large or run the other way. Where the call is inconclusive, the potency comes from a doubtful curve fit.

assay: Primary qHTS for delayed death inhibitors of the malarial parasite plastid, 96 hour incubation; settings: P. falciparum luciferase reporter growth; series mostly up to 28.7 µM; activity change, negative = inhibition: at the top concentration
In short: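 Compounds incubated with erythrocytes infected by luciferase-expressing P. falciparum (2% hematocrit, 0.05% parasitemia final) for 96 hours, 37 C in 5% CO2. Growth inhibition scored as decreased luciferase luminescence.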
On the % scale 0 is the no-effect control and ±100 the full control effect; potency means the concentration at half of the fitted maximal effect.

SMILES	Potency	activity change, negative = inhibition
COc1cc2ncnc(N[C@H](C)c3ccccc3)c2cc1OC	active: 13.1 µM	
Cc1ccc(C2=NN(C(=O)CN3C(=O)c4ccccc4S3(=O)=O)C(c3ccco3)C2)cc1 (centres undefined)		inactive: 14.6%
O=C(CSc1ncn[nH]1)c1ccc2c(c1)OCCO2		inactive: 0%
Cc1nc(NCCCn2ccnc2)c2oc3ccccc3c2n1	inconclusive: 16.5 µM [inhibitor, partial curve, poor fit]	
COc1cc(/C=C(\C#N)c2nc3ccccc3s2)cc([N+](=O)[O-])c1O	active: 9.28 µM	
Cc1ccc(C(C)C)cc1OCC(=O)Nc1ccc(N2CCCCC2)cc1	inconclusive: 11.7 µM [inhibitor, partial curve]	
COc1ccccc1C(=O)NCC(=O)OCC(=O)c1ccc2c(c1)-c1ccccc1C2		inactive: 28.1%
Cc1cc(C)nc(NN=C2CCCC2)n1	inconclusive: 18.5 µM [inhibitor, single point]	
CCOc1ccccc1N1C(=O)NC(=O)C(CCc2ccncc2)(CCc2ccncc2)C1=O	inconclusive: 8.28 µM [inhibitor, partial curve]	
CCN(CC(=O)Nc1c(F)cccc1F)C(=O)COc1cccc2c1OC(C)(C)C2	inconclusive: 14.7 µM [inhibitor, single point]	
COc1ccc(C(CNC(=O)c2ccc(NS(=O)(=O)c3ccc(F)cc3)cc2)N2CCOCC2)cc1 (centres undefined)	inconclusive: 9.28 µM [inhibitor, single point]	
N#CC1=C(N)C(C#N)(C#N)C2(C(=O)Nc3ccccc32)C2CCCC=C12 (centres undefined)	inconclusive: 4.15 µM [inhibitor, single point]	
O=C1c2ccccc2C(=O)N1Nc1ccc([N+](=O)[O-])cc1[N+](=O)[O-]	inconclusive: 11.7 µM [inhibitor, single point]	
CCc1nc(Nc2ccc(OC)cc2OC)c2oc3ccccc3c2n1	inconclusive: 18.5 µM [inhibitor, single point]	
CCOc1ncccc1C(=O)Nc1nc(C(C)(C)C)cs1	inconclusive: 18.5 µM [inhibitor, single point]	
CCc1cc2c(=O)[nH]c(N3CCCC3)nc2s1		inactive: 88.3%
Nc1nc(N2CCN(C(c3ccccc3)c3ccccc3)CC2)n[nH]1	inconclusive: 14.7 µM [inhibitor, single point]	
CCc1ccccc1NC(=O)CN(C)C(=O)c1cc(C2CC2)nc2c1cnn2C(C)C	inconclusive: 11.7 µM [inhibitor, partial curve, poor fit]	
CCCCc1c(C)c(C#N)c2nc3ccccc3n2c1Nc1c(C)n(C)n(-c2ccccc2)c1=O	active: 2.08 µM	
O=C(COC(=O)CCCc1nc2ccccc2s1)NC(=O)NCc1ccco1		inactive: 1.69%
COc1ccc(NC(=O)c2cn(-c3ccccc3)nc2-c2ccncc2)cc1		inactive: 40% [at 5.75 µM]
O=C(NCc1ccccc1)C(c1ccco1)N(C(=O)c1ccccn1)c1ccc(F)cc1 (centres undefined)		inactive: 94.8%

Arranged by length of the SMILES (largest number first): 3 of the compounds above.
SMILES	Potency	activity change, negative = inhibition
O=C1c2ccccc2C(=O)N1Nc1ccc([N+](=O)[O-])cc1[N+](=O)[O-]	inconclusive: 11.7 µM [inhibitor, single point]	
COc1ccc(NC(=O)c2cn(-c3ccccc3)nc2-c2ccncc2)cc1		inactive: 40% [at 5.75 µM]
COc1cc2ncnc(N[C@H](C)c3ccccc3)c2cc1OC	active: 13.1 µM	

Following part:

SMILES	Potency	activity change, negative = inhibition
Cc1ccc(NC(=O)COC(=O)CCCC2=NS(=O)(=O)c3ccccc3N2)cc1C	inconclusive: 0.0015 µM [inhibitor, full curve, poor fit]	
CCC(C(=O)Nc1c[nH]c(=O)[nH]c1=O)c1ccccc1 (centres undefined)	inconclusive: 11.7 µM [inhibitor, single point]	
COc1ccc(OC)c(C2=NOC(C(=O)NCc3cccs3)C2)c1 (centres undefined)	active: 0.37 µM	
CCCC(=O)Nc1ccc(S(=O)(=O)Nc2cc(C)nc(C)n2)cc1		inactive: 1.65% [at 5.75 µM]
O=C(Cc1ccccc1)NCC(=O)Nc1cccc(Br)c1	inconclusive: 8.28 µM [inhibitor, single point]	
CCOC(=O)c1nc(Nc2cc(C)cc(C)c2)c2ccccc2n1	inconclusive: 16.5 µM [inhibitor, single point]	
O=C(NCCN1CCCCCC1)C1CCC(CNS(=O)(=O)c2cccc3cccnc23)CC1 (centres undefined)	inconclusive: 18.5 µM [inhibitor, single point]	
CS(=O)(=O)N(CC(=O)Nc1c(F)cccc1F)c1ccc(C23CC4CC(CC(C4)C2)C3)cc1	inconclusive: 18.5 µM [inhibitor, single point]	
Cc1cc2nccc(-c3ccncc3)n2n1		inactive: 33.8%
O=C(NCC1CCCO1)c1ccc2c(=O)n(Cc3cccc(Br)c3)c(=S)[nH]c2c1 (centres undefined)		inactive: 6.33%
COc1ccc(-c2cc3c(=O)n(CC(=O)Nc4cccc(Cl)c4)nc(C)n3n2)cc1	inconclusive: 0.928 µM [inhibitor, partial curve, poor fit]	
COc1cc2c(cc1OC)-c1c(OC)c(OC)cc3c1C(C2)N(C)CC3 (centres undefined)		inactive: 126%
Nc1nonc1-n1nnc(C(=O)N/N=C/c2cc(Br)ccc2O)c1CNc1ccccc1	inconclusive: 18.5 µM [inhibitor, single point]	
CC1CCC(NC(=O)c2ccc(CNc3c(NC4CCCCC4)c(=O)c3=O)cc2)CC1 (centres undefined)	inconclusive: 16.5 µM [inhibitor, single point]	
O=C(Nc1ccccc1C(=O)O)c1cc(S(=O)(=O)Nc2ccccc2)ccc1Cl		inactive: -25.4%
CCOc1cccc2sc(=NC(=O)CCS(=O)(=O)c3ccc(F)cc3)n(C)c12		inactive: -12.9%
CN(C)S(=O)(=O)c1ccc(C(=O)NNC(=O)C2COc3ccccc3O2)cc1 (centres undefined)	inconclusive: 1.04 µM [inhibitor, partial curve, poor fit]	
CCN(CC(=O)NCc1cccs1)C(=O)c1ccc(-c2cccc(C(F)(F)F)c2)o1	active: 9.28 µM	
Cc1cccc(C)c1OCC(=O)N/N=C/c1cccn1C	inconclusive: 5.22 µM [inhibitor, partial curve]	
CC(Sc1nnc(-c2cccnc2)n1-c1ccccc1F)C(=O)N1CCCc2ccccc21 (centres undefined)	inconclusive: 18.5 µM [inhibitor, single point]	
O=C(c1cccc(NS(=O)(=O)c2ccccc2)c1)N1CCCCC1	inconclusive: 18.5 µM [inhibitor, single point]	
O=C(NCc1n[nH]c(=S)n1-c1cccc(C(F)(F)F)c1)c1ccc(S(=O)(=O)N2CCCC2)cc1	inconclusive: 4.15 µM [inhibitor, single point]	
